This is an account of results in PMC11369598.

Sequences of proteins named here, by UniProt entry; tags and fusion partners are left off. Residues count along the entry.
UniProt Q15843, residues 1-76: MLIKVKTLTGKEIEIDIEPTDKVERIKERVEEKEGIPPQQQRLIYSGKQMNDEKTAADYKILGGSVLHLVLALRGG
UniProt P11912, residues 33-226: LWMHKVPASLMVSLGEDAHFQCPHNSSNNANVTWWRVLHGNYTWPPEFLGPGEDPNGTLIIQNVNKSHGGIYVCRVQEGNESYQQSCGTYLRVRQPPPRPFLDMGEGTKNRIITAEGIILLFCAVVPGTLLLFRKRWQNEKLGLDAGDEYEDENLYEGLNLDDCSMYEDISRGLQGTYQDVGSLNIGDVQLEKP
UniProt Q14571: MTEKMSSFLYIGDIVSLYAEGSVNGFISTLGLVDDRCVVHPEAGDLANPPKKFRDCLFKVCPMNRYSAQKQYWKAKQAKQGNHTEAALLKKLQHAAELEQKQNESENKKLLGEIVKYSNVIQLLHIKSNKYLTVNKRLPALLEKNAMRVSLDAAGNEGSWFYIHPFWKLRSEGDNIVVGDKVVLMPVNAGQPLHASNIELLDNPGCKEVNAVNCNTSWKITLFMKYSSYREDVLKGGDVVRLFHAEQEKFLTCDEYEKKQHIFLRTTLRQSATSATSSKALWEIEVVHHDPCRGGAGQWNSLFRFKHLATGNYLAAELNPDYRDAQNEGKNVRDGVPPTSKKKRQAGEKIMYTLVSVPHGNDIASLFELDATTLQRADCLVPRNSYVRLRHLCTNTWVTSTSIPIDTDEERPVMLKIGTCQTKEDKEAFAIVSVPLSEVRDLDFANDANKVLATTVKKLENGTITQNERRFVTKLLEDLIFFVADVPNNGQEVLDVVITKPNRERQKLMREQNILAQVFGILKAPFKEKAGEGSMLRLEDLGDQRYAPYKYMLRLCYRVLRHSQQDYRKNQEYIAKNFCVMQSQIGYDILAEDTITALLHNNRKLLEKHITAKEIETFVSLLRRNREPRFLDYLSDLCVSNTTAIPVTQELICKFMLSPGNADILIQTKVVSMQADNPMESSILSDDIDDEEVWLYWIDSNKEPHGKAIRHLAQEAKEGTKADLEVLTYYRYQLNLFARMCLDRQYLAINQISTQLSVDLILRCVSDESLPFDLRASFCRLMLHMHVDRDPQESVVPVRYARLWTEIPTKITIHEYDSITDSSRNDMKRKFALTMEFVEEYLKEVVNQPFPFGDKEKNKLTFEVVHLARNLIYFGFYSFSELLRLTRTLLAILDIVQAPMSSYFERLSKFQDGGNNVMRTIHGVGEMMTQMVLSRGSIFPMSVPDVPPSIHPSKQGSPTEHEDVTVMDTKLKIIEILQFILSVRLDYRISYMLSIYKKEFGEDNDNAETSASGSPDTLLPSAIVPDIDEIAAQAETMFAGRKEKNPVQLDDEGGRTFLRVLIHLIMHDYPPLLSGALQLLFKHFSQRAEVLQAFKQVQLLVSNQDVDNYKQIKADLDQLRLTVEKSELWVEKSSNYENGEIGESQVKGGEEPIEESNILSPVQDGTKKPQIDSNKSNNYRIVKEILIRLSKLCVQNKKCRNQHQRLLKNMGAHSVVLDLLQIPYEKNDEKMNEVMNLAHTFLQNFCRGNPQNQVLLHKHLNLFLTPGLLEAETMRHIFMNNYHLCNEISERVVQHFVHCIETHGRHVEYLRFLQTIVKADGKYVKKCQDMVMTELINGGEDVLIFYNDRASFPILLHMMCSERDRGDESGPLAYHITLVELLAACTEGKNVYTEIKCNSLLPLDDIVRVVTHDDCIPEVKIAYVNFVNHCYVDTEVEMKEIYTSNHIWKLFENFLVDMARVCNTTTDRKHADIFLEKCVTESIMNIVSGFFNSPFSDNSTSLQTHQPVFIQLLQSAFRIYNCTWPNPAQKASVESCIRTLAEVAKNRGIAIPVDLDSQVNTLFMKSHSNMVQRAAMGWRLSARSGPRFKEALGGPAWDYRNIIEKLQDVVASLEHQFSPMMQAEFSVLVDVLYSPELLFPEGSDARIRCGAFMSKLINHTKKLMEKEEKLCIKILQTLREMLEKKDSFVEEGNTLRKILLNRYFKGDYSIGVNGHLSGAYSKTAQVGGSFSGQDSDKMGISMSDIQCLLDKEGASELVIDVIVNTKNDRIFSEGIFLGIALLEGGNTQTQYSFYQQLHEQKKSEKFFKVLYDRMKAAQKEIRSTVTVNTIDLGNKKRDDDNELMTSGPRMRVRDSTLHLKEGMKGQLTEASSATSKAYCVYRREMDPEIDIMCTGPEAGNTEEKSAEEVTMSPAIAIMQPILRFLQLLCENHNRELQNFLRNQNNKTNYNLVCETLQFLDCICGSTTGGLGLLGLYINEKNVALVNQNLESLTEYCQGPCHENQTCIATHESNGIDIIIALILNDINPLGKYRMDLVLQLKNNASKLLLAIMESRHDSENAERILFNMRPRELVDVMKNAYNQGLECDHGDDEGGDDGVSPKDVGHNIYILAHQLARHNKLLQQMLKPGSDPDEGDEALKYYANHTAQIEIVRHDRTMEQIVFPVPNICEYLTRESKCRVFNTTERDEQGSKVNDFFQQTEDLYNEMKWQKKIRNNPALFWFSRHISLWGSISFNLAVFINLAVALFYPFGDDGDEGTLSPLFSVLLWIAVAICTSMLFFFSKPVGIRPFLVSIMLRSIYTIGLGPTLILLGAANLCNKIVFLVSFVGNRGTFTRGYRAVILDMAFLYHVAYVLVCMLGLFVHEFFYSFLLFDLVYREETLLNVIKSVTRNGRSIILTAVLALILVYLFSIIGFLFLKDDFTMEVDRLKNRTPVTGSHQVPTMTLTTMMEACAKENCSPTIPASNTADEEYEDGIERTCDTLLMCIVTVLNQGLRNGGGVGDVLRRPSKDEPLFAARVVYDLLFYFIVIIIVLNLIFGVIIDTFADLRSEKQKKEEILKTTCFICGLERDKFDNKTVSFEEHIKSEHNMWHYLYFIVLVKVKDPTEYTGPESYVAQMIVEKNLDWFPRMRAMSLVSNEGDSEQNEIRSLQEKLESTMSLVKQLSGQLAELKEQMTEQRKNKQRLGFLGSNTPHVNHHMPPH

Assay [1] has as its target T1, KLHL6 E568K, C-terminal Strep-HA tag (human) (UniProt Q8WZ60).
T1 sequence: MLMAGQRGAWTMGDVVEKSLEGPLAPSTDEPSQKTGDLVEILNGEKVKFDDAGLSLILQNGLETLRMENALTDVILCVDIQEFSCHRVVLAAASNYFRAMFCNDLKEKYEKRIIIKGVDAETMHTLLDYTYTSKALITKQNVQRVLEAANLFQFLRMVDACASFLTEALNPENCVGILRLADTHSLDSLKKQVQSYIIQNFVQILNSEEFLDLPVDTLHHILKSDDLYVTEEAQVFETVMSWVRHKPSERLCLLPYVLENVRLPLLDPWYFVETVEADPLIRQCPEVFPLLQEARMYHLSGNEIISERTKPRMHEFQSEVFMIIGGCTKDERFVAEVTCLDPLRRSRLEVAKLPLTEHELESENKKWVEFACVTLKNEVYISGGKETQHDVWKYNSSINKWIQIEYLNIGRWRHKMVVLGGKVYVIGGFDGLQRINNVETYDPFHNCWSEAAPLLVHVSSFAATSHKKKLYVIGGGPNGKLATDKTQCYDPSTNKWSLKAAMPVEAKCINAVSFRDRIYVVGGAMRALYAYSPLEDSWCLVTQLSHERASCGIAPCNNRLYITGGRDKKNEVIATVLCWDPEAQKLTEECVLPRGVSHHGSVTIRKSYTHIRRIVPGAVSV
As to the kind of experiment: affinity purification with mass spectrometry; C-terminally Strep-HA-tagged KLHL6 baits stably expressed in SuDHL5; lysis in 0.5% IGEPAL, 50 mmol/L HEPES pH 8.0, 150 mmol/L NaCl, 5 mmol/L EDTA; one-step purification on Strep-Tactin Sepharose; EmGFP controls; SAINT and DESeq2; also done 60 seconds after BCR cross-linking with anti-human IgM F(ab')2 or control goat IgG.

In assay [2] the target is T2, KLHL6 wild type fused to C-terminal BioID2 (human) (UniProt Q8WZ60).
T2 sequence: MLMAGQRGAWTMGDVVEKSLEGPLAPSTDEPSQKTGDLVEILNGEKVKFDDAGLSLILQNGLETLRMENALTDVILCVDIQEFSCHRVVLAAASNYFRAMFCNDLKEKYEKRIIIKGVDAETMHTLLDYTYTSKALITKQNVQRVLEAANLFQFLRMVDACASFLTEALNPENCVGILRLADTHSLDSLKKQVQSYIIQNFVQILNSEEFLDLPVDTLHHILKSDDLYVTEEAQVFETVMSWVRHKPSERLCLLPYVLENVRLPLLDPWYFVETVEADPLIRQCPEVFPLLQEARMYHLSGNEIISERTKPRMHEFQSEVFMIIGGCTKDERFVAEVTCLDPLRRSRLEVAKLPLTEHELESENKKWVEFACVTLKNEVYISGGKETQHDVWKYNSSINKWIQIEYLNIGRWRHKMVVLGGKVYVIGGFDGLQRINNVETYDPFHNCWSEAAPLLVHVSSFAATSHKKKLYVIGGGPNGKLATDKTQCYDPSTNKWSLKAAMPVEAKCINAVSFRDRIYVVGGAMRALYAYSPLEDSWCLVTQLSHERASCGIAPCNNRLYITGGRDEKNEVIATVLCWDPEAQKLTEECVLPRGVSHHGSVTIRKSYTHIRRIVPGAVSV
As to the kind of experiment: proximity labelling; KLHL6 baits with C-terminal BioID2 stably expressed in SuDHL5, no added biotin; lysis with 0.1% SDS; biotinylated proteins purified on Strep-Tactin Sepharose; mass spectrometry; BioID2-tagged EmGFP controls.

In assay [3] the target is T3, KLHL6 wild type, C-terminal Strep-HA tag (KLHL6-strHA) (human) (UniProt Q8WZ60).
T3 sequence: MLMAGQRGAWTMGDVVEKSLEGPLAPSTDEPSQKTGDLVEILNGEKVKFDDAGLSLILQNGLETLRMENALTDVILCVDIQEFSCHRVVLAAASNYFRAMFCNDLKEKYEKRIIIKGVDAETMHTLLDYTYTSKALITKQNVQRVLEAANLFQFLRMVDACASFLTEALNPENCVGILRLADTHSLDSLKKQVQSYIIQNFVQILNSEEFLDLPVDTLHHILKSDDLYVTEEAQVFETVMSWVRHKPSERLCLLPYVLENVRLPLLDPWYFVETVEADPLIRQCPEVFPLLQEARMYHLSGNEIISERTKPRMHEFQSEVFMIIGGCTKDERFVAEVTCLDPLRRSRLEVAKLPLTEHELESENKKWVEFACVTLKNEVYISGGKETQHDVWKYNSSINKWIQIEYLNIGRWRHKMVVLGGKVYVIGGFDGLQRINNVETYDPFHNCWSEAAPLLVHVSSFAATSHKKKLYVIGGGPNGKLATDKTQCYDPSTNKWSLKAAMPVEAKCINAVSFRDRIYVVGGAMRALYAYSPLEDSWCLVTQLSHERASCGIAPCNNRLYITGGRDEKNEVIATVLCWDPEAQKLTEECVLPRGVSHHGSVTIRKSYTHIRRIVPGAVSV
As to the kind of experiment: affinity purification with mass spectrometry; C-terminally Strep-HA-tagged KLHL6 baits stably expressed in SuDHL5; lysis in 0.5% IGEPAL, 50 mmol/L HEPES pH 8.0, 150 mmol/L NaCl, 5 mmol/L EDTA; one-step purification on Strep-Tactin Sepharose; EmGFP controls; SAINT and DESeq2; also done 60 seconds after BCR cross-linking with anti-human IgM F(ab')2 or control goat IgG.

Assay [4] has as its target T3, KLHL6 wild type, C-terminal Strep-HA tag (KLHL6-strHA) (human). Described as above. The source holds these as a separate data set.

Read-outs that look alike come from different tables or passages of the source. Results are given in words; binding and its absence hold for the method and conditions named. Binding seen in cells or lysates may run through a third protein. A yes stands for co-enrichment or nearness to the bait. Other partners may have been found. Sequences can lack the tags named with a protein.

For the molecule Nedd8 (from UniProt Q15843 1-76), the binding result in assay [1] is “binds”.

With CD79A (from UniProt P11912 33-226), the binding result in assay [2], in assay [1] and in assay [3] was “binds” throughout.

Take “inositol 1,4,5-trisphosphate (IP3) receptor type 2 (ITPR2) (from UniProt Q14571 1-2701)”: in assay [2], the binding entry is “binds”.

B1: SUGT1 (protein, UniProt Q9Y2Z0 1-365)
chain: MAAAAAGTATSQRFFQSFSDALIDEDPQAALEELTKALEQKPDDAQYYCQRAYCHILLGNYCVAVADAKKSLELNPNNSTAMLRKGICEYHEKNYAAALETFTEGQKLDIETGFHRVGQAGLQLLTSSDPPALDSQSAGITGADANFSVWIKRCQEAQNGSESEVWTHQSKIKYDWYQTESQVVITLMIKNVQKNDVNVEFSEKELSALVKLPSGEDYNLKLELLHPIIPEQSTFKVLSTKIEIKLKKPEAVRWEKLEGQGDVPTPKQFVADVKNLYPSSSPYTRNWDKLVGEIKEEEKNEKLEGDAALNRLFQQIYSDGSDEVKRAMNKSFMESGGTVLSTNWSDVGKRKVEINPPDDMEWKKY
Consider B1, for which the binding entry in assay [4] is reported as “binds”.

B2: Kelch-chaperone NuDCD3 (protein, UniProt Q8IVD9 1-361)
chain: METGAAELYDQALLGILQHVGNVQDFLRVLFGFLYRKTDFYRLLRHPSDRMGFPPGAAQALVLQVFKTFDHMARQDDEKRRQELEEKIRRKEEEEAKTVSAAAAEKEPVPVPVQEIEIDSTTELDGHQEVEKVQPPGPVKEMAHGSQEAEAPGAVAGAAEVPREPPILPRIQEQFQKNPDSYNGAVRENYTWSQDYTDLEVRVPVPKHVVKGKQVSVALSSSSIRVAMLEENGERVLMEGKLTHKINTESSLWSLEPGKCVLVNLSKVGEYWWNAILEGEEPIDIDKINKERSMATVDEEEQAVLDRLTFDYHQKLQGKPQSHELKVHEMLKKGWDAEGSPFRGQRFDPAMFNISPGAVQF
For the molecule B2, in assay [4], the binding result is “binds”.

B3: Roquin-2 (protein, UniProt Q9HBD1 1-1191)
chain: MPVQAAQWTEFLSCPICYNEFDENVHKPISLGCSHTVCKTCLNKLHRKACPFDQTAINTDIDVLPVNFALLQLVGAQVPDHQSIKLSNLGENKHYEVAKKCVEDLALYLKPLSGGKGVASLNQSALSRPMQRKLVTLVNCQLVEEEGRVRAMRAARSLGERTVTELILQHQNPQQLSANLWAAVRARGCQFLGPAMQEEALKLVLLALEDGSALSRKVLVLFVVQRLEPRFPQASKTSIGHVVQLLYRASCFKVTKRDEDSSLMQLKEEFRSYEALRREHDAQIVHIAMEAGLRISPEQWSSLLYGDLAHKSHMQSIIDKLQSPESFAKSVQELTIVLQRTGDPANLNRLRPHLELLANIDPNPDAVSPTWEQLENAMVAVKTVVHGLVDFIQNYSRKGHETPQPQPNSKYKTSMCRDLRQQGGCPRGTNCTFAHSQEELEKYRLRNKKINATVRTFPLLNKVGVNNTVTTTAGNVISVIGSTETTGKIVPSTNGISNAENSVSQLISRSTDSTLRALETVKKVGKVGANGQNAAGPSADSVTENKIGSPPKTPVSNVAATSAGPSNVGTELNSVPQKSSPFLTRVPVYPPHSENIQYFQDPRTQIPFEVPQYPQTGYYPPPPTVPAGVAPCVPRFVRSNNVPESSLPPASMPYADHYSTFSPRDRMNSSPYQPPPPQPYGPVPPVPSGMYAPVYDSRRIWRPPMYQRDDIIRSNSLPPMDVMHSSVYQTSLRERYNSLDGYYSVACQPPSEPRTTVPLPREPCGHLKTSCEEQIRRKPDQWAQYHTQKAPLVSSTLPVATQSPTPPSPLFSVDFRADFSESVSGTKFEEDHLSHYSPWSCGTIGSCINAIDSEPKDVIANSNAVLMDLDSGDVKRRVHLFETQRRTKEEDPIIPFSDGPIISKWGAISRSSRTGYHTTDPVQATASQGSATKPISVSDYVPYVNAVDSRWSSYGNEATSSAHYVERDRFIVTDLSGHRKHSSTGDLLSLELQQAKSNSLLLQREANALAMQQKWNSLDEGRHLTLNLLSKEIELRNGELQSDYTEDATDTKPDRDIELELSALDTDEPDGQSEPIEEILDIQLGISSQNDQLLNGMAVENGHPVQQHQKEPPKQKKQSLGEDHVILEEQKTILPVTSCFSQPLPVSISNASCLPITTSVSAGNLILKTHVMSEDKNDFLKPVANGKMVNS
B3: the binding entry in assay [4] is “binds”.
